Reference: PubChem BioAssay AID1224826 (NIAID, 2016)

- Screen: 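Genes that change LPS-induced Tnf promoter activity in mouse macrophages when knocked down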 (primary screen)
- Cell system: RAW264.7 G9 macrophages from mouse bearing reporters for p65 (GFP) and the Tnf promoter (mCherry)
- Knock-down reagent: siRNA pool against mouse genes, 100 nM
- Time to read-out: 16 h of LPS stimulation, after 2 days of siRNA transfection
- Challenge: bacterial lipopolysaccharide (Salmonella minnesota R595), 10 ng/ml
- Measured: 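Imaged Tnf reporter mCherry in nuclei, minus background, normalised per plate to the median and expressed as robust z-scores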
- Reading the numbers: Tnf reporter robust z-score: higher = stronger Tnf promoter reporter signal after LPS
- Call rule: 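Called active when robust z-score is at most -1.3, matching the median of the Tlr4 knock-down control, or over 3; control wells and wells with under 50 cells never active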
- Calls: active = Tnf reporter clearly lowered or raised; inactive = no clear change in Tnf reporter
The deposit covers about 17,000 reagents; this is a part drawn at random. About 1,110 of them (6.6%) count as active. 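Active means lowered or raised reporter signal; replicate intensities are raw and not normalised per plate.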 Not all columns of the deposit are shown.

The first 2 entries, to show the layout:
gene,Tnf reporter robust z-score,fewer than 50 cells in well,outcome
Ubfd1,-0.89,enough cells in well,inactive
Api5,0.63,enough cells in well,inactive

The listing, repeating the preview:
gene,Tnf reporter robust z-score,fewer than 50 cells in well,outcome
Ubfd1,-0.89,enough cells in well,inactive
Api5,0.63,enough cells in well,inactive
Sgtb,0.56,enough cells in well,inactive
Spata2,0.74,enough cells in well,inactive
Srprb,,fewer than 50 cells per well; well left out of calls,inactive
Wdr83,,fewer than 50 cells per well; well left out of calls,inactive
Asxl2,,fewer than 50 cells per well; well left out of calls,inactive
Cd37,-0.36,enough cells in well,inactive
Dlx4,0.48,enough cells in well,inactive
Mob1a,1.73,enough cells in well,inactive
Myot,0.3,enough cells in well,inactive
Dctn2,0.19,enough cells in well,inactive
Or5ae1,-0.29,enough cells in well,inactive
Cyp2c70,-1.34,enough cells in well,active
Pla2g2a,-0.23,enough cells in well,inactive
Armh3,-0.13,enough cells in well,inactive
Tia1,0.56,enough cells in well,inactive
2300002M23Rik,,fewer than 50 cells per well; well left out of calls,inactive
Igsf6,-1.5,enough cells in well,active
Dmrta2,0.28,enough cells in well,inactive
Apoc2,0.77,enough cells in well,inactive
Ppm1j,0.26,enough cells in well,inactive
Arrdc4,-1.81,enough cells in well,active
Xlr,1.66,enough cells in well,inactive
